# Assay results from US12421193B2, “GPR52 modulators and methods of use” (Neurocrine Biosciences, Inc., priority 2020, dated 2025).
# Sequences of proteins named here, by UniProt entry; tags and fusion partners are left off.
# UniProt Q9Y2T5, whole entry: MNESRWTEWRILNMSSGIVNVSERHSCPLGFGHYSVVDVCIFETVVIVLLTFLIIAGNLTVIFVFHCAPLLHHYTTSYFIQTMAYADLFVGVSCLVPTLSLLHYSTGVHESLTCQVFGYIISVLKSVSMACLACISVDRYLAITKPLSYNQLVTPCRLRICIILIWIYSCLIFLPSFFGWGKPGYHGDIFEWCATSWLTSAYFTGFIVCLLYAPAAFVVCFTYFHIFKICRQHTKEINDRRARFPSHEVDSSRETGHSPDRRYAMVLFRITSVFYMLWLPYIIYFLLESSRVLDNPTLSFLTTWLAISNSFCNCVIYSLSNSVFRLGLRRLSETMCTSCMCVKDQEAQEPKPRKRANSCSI
# Target: recombinant human GPR52 (Homo sapiens, UniProt Q9Y2T5)
# Experiment: TR-FRET cAMP assay (LANCE Ultra cAMP Kit), GPR52 activity
# Conditions: Flp-In-CHO cells stably expressing recombinant human GPR52; cAMP production, normalized to the positive control
# Procedure: TR-FRET cAMP assays were performed using commercially available assay kits (LANCE™ Ultra cAMP Kit). Controls and compounds were solubilized in DMSO using ½ log dilution to generate duplicate 10-point dose response curves in 384-well polypropylene compound plates. Sixty nanoliters of the diluted compounds were transferred into 384-well NBS assay plates and further diluted to 1× with the addition of 2000 cells per well. Flp-In™—CHO cells that stably express recombinant human GPR52.
# Cells were harvested with cell stripper and resuspended in Stimulation Buffer (5 mM HEPES, 0.1% bovine serum albumin (BSA), 0.5 mM IBMX, pH 7.4). After thirty minutes incubation at room temperature, detection reagents were added to each well. Plates were then incubated for 30 minutes at room temperature. The LANCE™ Ultra cAMP assay uses time-resolved fluorescence resonance energy transfer (TR-FRET) to detect cAMVP production; this signal was quantified using a Pherastar multi-mode plate reader.
# Dose-response curves were generated from the fluorescence counts normalized to the positive control. E EC50 values were obtained using a nonlinear regression curve-fitting program. Table 2 provides EC50 values where A is <25 nM; B is 25-100 nM; C is 101-1000 nM; and D is >1000 nM.
smiles,measurement,value
Cc1cc(-c2cc(COc3ccc(C(F)(F)F)c(Cl)c3)ccn2)ccc1C(N)=O,EC50,< 25 nM

# Structures were worked out from names or drawings and are uncertain.
